{
  "source": "patent US10220096B2",
  "about": "“Injectable and stable hydrogels with dynamic properties modulated by biocompatible catalysts” (The Board of Trustees of the Leland Stanford Junior …, priority 2016, dated 2019)",
  "assay": "Kinetic measurements on hydrazone exchange (model reaction, HPLC)",
  "settings": "calculated from rate constants",
  "description": "2-(aminomethyl)benzimidazole (1 in FIG. 2) is an efficient catalyst to accelerate hydrazone formation owing to facilitated intramolecular proton transfer in the transition state. The rates for hydrazone formation (k1) and cleavage (k−1) in the presence of 1 were measured using model reactions between hydrazine and aldehyde and modeled for a reversible second-order reaction (FIG. 8), and the equilibrium constant (Keq) was calculated from these rate constants. […] The gelation time of the HA-hydrazone hydrogels was dramatically shortened in the presence of 1. […] In the presence of about 25 mM of 1, gelation occurred in less than about 60 s and reached a final plateau shear modulus of about 800 Pa in about 5 min (FIG. 3b). Increasing the catalyst loading to about 100 mM further shortened the time to reach equilibrium to about 3 min (FIG. 3b). […] The rate of stress relaxation under constant strain was quantified by the time for the initially measured stress to relax to half of its original value, τ1/2. […] Accelerated hydrazone exchange by an incorporated catalyst also allowed these hydrogels to be readily remolded macroscopically (FIG. 9), facilitating their injection and re-processing. […]\nThe equilibrium constant (Keq) and rate constants for hydrazone formation (k1) and cleavage (k−1) between aldehyde S1 and hydrazine S3 as model compounds with different concentrations of catalyst 1 were measured by HPLC. […]\nFor the reactions performed in the absence of catalyst, about 10 μL of hydrazine and about 10 μL of aldehyde stock solutions were added to about 980 μL PBS buffer (1×, pH of about 7.4). […] The reactions were performed at about 37° C. in a water bath and followed using HPLC with detection at about 420 nm absorption (HPLC conditions: XBridge 10 μm C18 column; about 40% acetonitrile in PBS buffer (pH of about 7) isocratic elution in about 7 min at a flow rate of about 0.34 mL/min. The concentrations and conversions were calculated from the integrals of the HPLC signals. The kinetic data of hydrazone formation were fitted to a kinetic model for 2nd order reactions using Matlab (FIG. 8). […]",
  "data": [
    {"smiles": "NCc1nc2ccccc2[nH]1", "note": "[catalyst 1, 2-(aminomethyl)benzimidazole]", "values": [
      {"measurement": "Keq, equilibrium constant of hydrazone formation", "setting": "25 mM of 1", "result": 124000, "unit": "M⁻¹"},
      {"measurement": "Keq, equilibrium constant of hydrazone formation", "setting": "50 mM of 1", "result": 123000, "unit": "M⁻¹"},
      {"measurement": "Keq, equilibrium constant of hydrazone formation", "setting": "100 mM of 1", "result": 124000, "unit": "M⁻¹"}
    ]}
  ]
}
